Reference: the supplement of paper PMC8288183
The other results are listed elsewhere or left out. Many values rest on one well or one pass, so single values are uncertain.

Target: T1, NSUN6 (UniProt Q8TEA1)
T1 sequence: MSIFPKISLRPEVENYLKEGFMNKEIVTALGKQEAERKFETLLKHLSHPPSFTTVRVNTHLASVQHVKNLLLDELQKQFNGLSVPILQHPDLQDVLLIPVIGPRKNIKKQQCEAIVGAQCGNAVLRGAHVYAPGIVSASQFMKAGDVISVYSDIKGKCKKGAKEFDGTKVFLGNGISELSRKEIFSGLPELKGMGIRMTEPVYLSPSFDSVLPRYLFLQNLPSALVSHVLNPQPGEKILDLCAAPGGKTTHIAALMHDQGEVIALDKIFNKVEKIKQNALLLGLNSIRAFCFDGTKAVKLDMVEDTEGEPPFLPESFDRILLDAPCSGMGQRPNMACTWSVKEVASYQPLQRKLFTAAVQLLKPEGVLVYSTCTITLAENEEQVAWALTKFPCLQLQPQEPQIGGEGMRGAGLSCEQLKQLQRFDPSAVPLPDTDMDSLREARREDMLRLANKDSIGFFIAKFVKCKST
Test: m5C methylation level at the target C (C/(C+U) bisulfite reads) (fraction); higher = more methylation by NSUN6; extreme values may be limits of the assay
Conditions: HEK293T (wild-type)
Protocol: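 High-throughput mutagenesis reporter. About 140 bp oligo-pool variants of four natural Type II m5C substrates (substrate #1 chr15:91425541; #2 RAB15 3'UTR chr14:65413377; #3 SULT2A1 5'UTR chr19:48389569; #4 NAAA CDS chr4:76857361) were cloned as 3'UTR elements of psiCHECK-2 luciferase and transfected into wild-type HEK293T cells. Total RNA was taken 48 h later and m5C level was measured by targeted bisulfite sequencing as C/(C+U) reads at the m5C site (one library).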

[1] = parent substrate: substrate #1 (main figure)

| Sequence | m5C methylation level at the target C [1] | m5C methylation level at the target C (parent substrate: substrate #2) | m5C methylation level at the target C (parent substrate: substrate #3) | m5C methylation level at the target C (parent substrate: substrate #4) |
| --- | --- | --- | --- | --- |
| CCUUUU | 0.00281 | 0.000943 | 0 | 0.00225 |
| GCUUUC | 0.00138 | 0.00282 | 0.00501 | 0.0015 |
| ACUGGC | 0.000873 | 0 | 0.00231 | 0.000837 |
| ACAUCU | 0.000527 | 0.00107 | 0.00351 | 0 |
| CCAGCU | 0 | 0.00223 | 0 | 0.00275 |
| CCUAAG | 0 | 0 | 0.000684 | 0 |
| ACCUAU | 0.00115 | 0.00188 | 0.00236 | 0 |
| CCAAUU | 0.000821 | 0 | 0.00735 | 0.00145 |
| GCCGUU | 0.00111 | 0.00506 | 0.0013 | 0.00733 |
| CCUGCC | 0.00149 | 0.00173 | 0.00163 | 0.00047 |
| ACGAUG | 0.000456 | 0 | 0.000347 | 0.000735 |
| ACAUAG | 0.00136 | 0 | 0.000311 | 0.000789 |
| ACAGGC | 0.0047 | 0 | 0.00049 | 0 |
| GCCGGU | 0.000697 | 0.00211 | 0.00325 | 0.00363 |
| ACAAUU | 0 | 0.00131 | 0 | 0 |
| GCUAAC | 0.00212 | 0.00107 | 0.00191 | 0.00773 |
| ACGUCU | 0.00138 | 0.00154 | 0.000975 | 0.000808 |
| CCCUCG | 0 | 0.00159 | 0.0007 | 0 |
| ACAACG | 0 | 0.000933 | 0.00157 | 0.00315 |
| ACUGAG | 0.00118 | 0 | 0 | 0 |
| ACAACA | 0.00226 | 0 | 0 | 0.00261 |
| CCAUAU | 0.00856 | 0 | 0.00205 | 0.000529 |
| CCGCAC | 0.00498 | 0.00189 | 0.00213 | 0.000555 |
| GCCGAU | 0.00166 | 0 | 0.0012 | 0.006 |

Given comma-delimited: part of the list above.
Sequence,m5C methylation level at the target C [1],m5C methylation level at the target C (parent substrate: substrate #2),m5C methylation level at the target C (parent substrate: substrate #3),m5C methylation level at the target C (parent substrate: substrate #4)
ACAACG,0,0.000933,0.00157,0.00315
ACUGAG,0.00118,0,0,0
ACAACA,0.00226,0,0,0.00261
CCAUAU,0.00856,0,0.00205,0.000529

The list goes on.

| Sequence | m5C methylation level at the target C [1] | m5C methylation level at the target C (parent substrate: substrate #2) | m5C methylation level at the target C (parent substrate: substrate #3) | m5C methylation level at the target C (parent substrate: substrate #4) |
| --- | --- | --- | --- | --- |
| CCCUUC | 0.000954 | 0 | 0.00115 | 0 |
| ACGAGA | 0.00297 | 0.00415 | 0.003 | 0.00459 |
| UCUUCU | 0 | 0 | 0 | 0 |
| UCUUCA | 0.0117 | 0 | 0.00318 | 0 |
| CCGUGC | 0.0126 | 0 | 0.000593 | 0.000603 |
| ACAAGC | 0 | 0.0101 | 0 | 0 |
| GCUUCA | 0 | 0 | 0 | 0.0042 |
| CCCCCA | 0.0198 | 0.015 | 0.00213 | 0.00258 |
| GCUGCC | 0 | 0.0017 | 0.000505 | 0.00387 |
| UCACUG | 0 | 0.00904 | 0 | 0.0123 |
| UCAGUG | 0 | 0.00144 | 0 | 0 |
| GCUGGG | 0 | 0.00731 | 0.00128 | 0 |
| UCGGAC | 0.00179 | 0 | 0 | 0 |
| UCAGGA | 0.00141 | 0 | 0.000508 | 0 |
| UCGAGG | 0.00415 | 0.00711 | 0.00216 | 0.00159 |
| UCCUGG | 0 | 0.00066 | 0.00134 | 0 |
| GCACAG | 0.00326 | 0.00419 | 0.00129 | 0.00225 |
| GCUGUU | 0.000558 | 0 | 0.00076 | 0.000635 |
| ACUUAA | 0.00144 | 0.00081 | 0.00134 | 0.00156 |
| UCGGGU | 0.000922 | 0.00308 | 0.000563 | 0 |
| GCCGUC | 0.00382 | 0.00279 | 0 | 0 |
| UCACAA | 0.000723 | 0.0126 | 0.000528 | 0.00324 |
| ACCUUA | 0.00161 | 0 | 0.000886 | 0.00117 |
| GCCCAC | 0 | 0.00306 | 0.00139 | 0.00262 |

| Sequence | m5C methylation level at the target C [1] | m5C methylation level at the target C (parent substrate: substrate #2) | m5C methylation level at the target C (parent substrate: substrate #3) | m5C methylation level at the target C (parent substrate: substrate #4) |
| --- | --- | --- | --- | --- |
| GCUUAG | 0.00198 | 0 | 0.00132 | 0.00196 |
| ACGGAG | 0.000708 | 0.00125 | 0.00105 | 0 |
| UCAUGC | 0.000951 | 0 | 0 | 0.00142 |
| ACGGAC | 0.000607 | 0 | 0 | 0.000934 |
| GCAGUU | 0.00904 | 0.00162 | 0.00222 | 0.000637 |
| GCUUUG | 0.00546 | 0.000811 | 0.00445 | 0 |
| GCUAUA | 0.00231 | 0.00118 | 0.00202 | 0.0012 |
| UCAACU | 0.000383 | 0 | 0.00224 | 0 |
| CCCUGC | 0.0014 | 0 | 0.00109 | 0.000903 |
| ACAAUG | 0 | 0 | 0.00105 | 0.000982 |
| UCAUCU | 0.0033 | 0.000989 | 0.0085 | 0.00787 |
| UCAGAC | 0.00341 | 0 | 0.00437 | 0.00361 |
| ACAUCG | 0 | 0 | 0 | 0.000708 |
| CCCGCU | 0.000567 | 0 | 0.00116 | 0 |
| ACGCUU | 0.00923 | 0.000999 | 0 | 0.00125 |
| GCCUCC | 0.00211 | 0.00587 | 0.00172 | 0 |
| ACGGCU | 0.00174 | 0 | 0.000459 | 0.000921 |
| UCCACU | 0.00152 | 0 | 0.00261 | 0.000496 |
| UCGUUA | 0.000513 | 0.00134 | 0.00369 | 0.00149 |
| UCAGCC | 0.000629 | 0.00111 | 0.000762 | 0.00839 |
| ACGGCG | 0.000564 | 0.0011 | 0.00175 | 0 |
| GCAGGG | 0 | 0 | 0.00217 | 0 |
| ACAGAU | 0.00251 | 0 | 0.00129 | 0.00124 |
| UCCUCU | 0.00104 | 0 | 0 | 0 |
